# From the supplement of paper PMC10849652
# By UniProt entry, the sequences of proteins in these tests, tags left out. Where a name states a change or a piece, a line headed by the entry shows the natural chain unless it says otherwise.
# UniProt Q9NSE4: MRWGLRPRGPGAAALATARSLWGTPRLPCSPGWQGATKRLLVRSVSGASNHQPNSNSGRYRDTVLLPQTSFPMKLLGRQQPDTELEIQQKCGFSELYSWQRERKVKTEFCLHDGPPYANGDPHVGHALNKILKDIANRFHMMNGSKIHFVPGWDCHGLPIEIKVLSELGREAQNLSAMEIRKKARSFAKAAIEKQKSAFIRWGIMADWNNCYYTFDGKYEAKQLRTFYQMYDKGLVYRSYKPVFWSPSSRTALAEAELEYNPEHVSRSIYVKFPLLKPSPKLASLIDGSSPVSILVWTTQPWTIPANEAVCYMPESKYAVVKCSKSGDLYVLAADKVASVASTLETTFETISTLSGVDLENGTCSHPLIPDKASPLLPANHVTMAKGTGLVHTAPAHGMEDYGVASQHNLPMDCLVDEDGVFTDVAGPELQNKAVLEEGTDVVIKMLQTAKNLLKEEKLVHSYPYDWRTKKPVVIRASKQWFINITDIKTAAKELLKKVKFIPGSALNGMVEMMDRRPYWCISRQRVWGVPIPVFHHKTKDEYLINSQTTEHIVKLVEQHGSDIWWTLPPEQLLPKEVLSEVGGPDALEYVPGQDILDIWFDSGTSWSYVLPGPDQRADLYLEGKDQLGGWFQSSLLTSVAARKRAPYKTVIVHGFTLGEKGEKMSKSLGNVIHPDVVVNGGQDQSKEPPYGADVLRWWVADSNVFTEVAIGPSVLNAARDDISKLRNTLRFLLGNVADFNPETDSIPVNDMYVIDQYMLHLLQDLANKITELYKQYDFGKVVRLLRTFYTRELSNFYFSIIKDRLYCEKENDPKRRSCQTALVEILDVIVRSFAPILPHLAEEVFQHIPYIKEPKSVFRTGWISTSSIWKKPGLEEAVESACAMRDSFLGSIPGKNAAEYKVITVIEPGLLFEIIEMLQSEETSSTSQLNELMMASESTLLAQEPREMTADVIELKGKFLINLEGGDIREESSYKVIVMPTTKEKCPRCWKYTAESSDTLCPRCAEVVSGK
# UniProt Q9NVR2, whole entry, looked up: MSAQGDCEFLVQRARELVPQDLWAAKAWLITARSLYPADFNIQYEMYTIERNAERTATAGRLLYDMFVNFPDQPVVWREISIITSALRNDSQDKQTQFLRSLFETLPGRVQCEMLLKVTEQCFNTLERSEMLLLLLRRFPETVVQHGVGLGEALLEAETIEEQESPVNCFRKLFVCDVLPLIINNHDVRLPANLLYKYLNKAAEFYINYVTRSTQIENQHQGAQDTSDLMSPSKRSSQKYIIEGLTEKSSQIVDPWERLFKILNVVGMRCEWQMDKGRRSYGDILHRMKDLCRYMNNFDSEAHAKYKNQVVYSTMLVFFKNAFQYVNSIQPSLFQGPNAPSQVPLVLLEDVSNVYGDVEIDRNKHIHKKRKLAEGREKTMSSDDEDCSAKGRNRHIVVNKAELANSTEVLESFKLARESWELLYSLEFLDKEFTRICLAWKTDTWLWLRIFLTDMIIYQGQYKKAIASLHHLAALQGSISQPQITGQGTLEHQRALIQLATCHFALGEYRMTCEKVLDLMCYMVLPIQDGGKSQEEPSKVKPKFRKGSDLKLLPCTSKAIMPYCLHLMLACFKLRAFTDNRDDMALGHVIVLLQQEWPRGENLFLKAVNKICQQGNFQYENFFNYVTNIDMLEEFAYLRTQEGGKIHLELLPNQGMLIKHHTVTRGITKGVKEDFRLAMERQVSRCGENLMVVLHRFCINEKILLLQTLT
# UniProt Q659A1: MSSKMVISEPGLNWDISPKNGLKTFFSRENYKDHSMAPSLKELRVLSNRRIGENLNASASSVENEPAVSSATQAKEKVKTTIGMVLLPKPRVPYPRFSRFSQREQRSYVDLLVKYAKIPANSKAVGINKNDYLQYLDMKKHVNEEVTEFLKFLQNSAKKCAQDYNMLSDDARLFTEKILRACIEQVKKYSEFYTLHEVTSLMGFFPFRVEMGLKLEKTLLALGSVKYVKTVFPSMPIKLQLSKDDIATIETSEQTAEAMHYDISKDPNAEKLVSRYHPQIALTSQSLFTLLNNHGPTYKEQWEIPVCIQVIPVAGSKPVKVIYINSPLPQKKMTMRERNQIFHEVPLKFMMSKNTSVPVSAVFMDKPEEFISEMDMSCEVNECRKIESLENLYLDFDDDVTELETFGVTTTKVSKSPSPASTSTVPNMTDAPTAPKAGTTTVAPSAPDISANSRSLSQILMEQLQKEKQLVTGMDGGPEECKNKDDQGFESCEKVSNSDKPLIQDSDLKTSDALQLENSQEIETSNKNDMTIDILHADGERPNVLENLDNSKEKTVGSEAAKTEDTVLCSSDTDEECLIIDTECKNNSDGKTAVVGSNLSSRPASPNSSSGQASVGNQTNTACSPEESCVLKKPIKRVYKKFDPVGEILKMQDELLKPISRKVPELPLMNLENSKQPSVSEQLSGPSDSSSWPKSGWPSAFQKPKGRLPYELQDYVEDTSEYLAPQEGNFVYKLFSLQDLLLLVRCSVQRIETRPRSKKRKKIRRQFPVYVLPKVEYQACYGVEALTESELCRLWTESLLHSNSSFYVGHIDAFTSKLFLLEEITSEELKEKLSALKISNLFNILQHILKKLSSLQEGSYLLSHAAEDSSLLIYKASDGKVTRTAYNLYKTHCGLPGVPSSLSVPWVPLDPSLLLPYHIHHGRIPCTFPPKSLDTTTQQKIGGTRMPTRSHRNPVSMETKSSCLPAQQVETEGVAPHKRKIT
# UniProt Q6PI98, whole entry, looked up: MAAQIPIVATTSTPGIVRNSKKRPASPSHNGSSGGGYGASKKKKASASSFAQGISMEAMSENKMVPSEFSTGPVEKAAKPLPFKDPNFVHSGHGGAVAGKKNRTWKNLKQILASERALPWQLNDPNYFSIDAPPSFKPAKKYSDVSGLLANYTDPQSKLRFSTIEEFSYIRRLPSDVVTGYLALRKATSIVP
# UniProt Q05084: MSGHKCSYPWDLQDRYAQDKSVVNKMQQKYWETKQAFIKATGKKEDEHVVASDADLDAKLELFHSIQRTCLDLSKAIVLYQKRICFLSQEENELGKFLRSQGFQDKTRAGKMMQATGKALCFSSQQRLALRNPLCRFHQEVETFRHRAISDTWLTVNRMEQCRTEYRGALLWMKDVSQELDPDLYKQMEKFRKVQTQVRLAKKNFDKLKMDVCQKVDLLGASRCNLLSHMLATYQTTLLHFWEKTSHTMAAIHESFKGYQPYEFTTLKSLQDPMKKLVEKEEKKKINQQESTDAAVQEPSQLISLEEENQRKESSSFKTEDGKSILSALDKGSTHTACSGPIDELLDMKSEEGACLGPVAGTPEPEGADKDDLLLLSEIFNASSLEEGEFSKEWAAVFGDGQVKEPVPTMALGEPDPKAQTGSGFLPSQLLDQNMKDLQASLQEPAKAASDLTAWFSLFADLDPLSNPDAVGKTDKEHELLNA
# UniProt P01860, whole entry, looked up: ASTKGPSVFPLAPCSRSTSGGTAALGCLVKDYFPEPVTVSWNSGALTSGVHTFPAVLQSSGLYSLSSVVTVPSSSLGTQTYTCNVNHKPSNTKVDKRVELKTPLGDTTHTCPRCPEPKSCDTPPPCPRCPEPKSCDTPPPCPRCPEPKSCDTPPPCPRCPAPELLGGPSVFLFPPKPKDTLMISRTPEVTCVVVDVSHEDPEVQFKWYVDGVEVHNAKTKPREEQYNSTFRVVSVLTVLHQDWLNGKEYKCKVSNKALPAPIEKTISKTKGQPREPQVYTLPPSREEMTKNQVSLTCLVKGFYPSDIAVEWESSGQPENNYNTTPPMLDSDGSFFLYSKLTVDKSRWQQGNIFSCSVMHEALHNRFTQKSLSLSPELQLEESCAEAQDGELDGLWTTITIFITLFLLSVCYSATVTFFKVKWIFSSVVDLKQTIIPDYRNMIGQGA
# UniProt Q9NX62: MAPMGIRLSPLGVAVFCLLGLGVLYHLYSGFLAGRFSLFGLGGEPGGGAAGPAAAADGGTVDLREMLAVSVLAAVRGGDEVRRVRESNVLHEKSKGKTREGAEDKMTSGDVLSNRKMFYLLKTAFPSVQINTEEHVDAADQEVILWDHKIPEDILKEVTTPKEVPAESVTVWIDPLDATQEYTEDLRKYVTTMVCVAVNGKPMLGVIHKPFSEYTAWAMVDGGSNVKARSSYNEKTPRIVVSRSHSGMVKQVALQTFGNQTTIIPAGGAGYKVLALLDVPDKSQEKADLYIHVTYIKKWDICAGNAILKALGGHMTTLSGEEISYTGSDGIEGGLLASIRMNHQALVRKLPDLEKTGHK
# UniProt Q96EW2: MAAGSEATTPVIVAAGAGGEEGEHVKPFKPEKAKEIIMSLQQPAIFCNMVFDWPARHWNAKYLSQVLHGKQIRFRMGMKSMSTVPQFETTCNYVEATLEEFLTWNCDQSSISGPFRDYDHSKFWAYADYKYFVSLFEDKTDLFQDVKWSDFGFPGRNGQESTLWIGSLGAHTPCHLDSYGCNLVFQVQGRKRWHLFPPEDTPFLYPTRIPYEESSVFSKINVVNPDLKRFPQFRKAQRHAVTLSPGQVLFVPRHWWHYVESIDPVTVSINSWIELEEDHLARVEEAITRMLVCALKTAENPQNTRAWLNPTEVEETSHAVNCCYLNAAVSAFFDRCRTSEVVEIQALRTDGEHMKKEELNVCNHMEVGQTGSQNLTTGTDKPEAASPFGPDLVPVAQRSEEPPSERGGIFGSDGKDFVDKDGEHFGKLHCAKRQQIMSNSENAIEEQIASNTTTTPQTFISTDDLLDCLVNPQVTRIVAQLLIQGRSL
# UniProt O60921: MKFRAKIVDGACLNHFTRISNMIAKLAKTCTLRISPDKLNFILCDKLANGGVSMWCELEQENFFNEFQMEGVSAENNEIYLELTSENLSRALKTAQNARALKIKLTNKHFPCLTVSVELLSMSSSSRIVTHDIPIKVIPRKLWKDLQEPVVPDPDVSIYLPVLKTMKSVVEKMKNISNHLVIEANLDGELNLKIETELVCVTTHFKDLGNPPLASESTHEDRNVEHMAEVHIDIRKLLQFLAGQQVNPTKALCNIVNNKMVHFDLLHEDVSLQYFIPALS
# UniProt Q12894: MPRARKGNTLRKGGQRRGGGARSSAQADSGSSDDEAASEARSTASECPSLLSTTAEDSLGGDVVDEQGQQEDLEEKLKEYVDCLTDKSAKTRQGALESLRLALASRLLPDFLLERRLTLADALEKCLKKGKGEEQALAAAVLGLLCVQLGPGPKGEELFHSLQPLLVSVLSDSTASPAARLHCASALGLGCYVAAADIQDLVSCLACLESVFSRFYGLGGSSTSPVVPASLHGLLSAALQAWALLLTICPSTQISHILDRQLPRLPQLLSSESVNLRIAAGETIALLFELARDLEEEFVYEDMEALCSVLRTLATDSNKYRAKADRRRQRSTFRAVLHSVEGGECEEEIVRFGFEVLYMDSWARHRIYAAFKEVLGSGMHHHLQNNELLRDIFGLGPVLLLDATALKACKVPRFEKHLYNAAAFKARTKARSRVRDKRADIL
# UniProt Q8IY31, whole entry, looked up: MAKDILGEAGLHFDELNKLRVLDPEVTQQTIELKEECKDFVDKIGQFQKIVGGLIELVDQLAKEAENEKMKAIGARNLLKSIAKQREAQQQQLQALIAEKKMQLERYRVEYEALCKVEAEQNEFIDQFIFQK
# UniProt P22692: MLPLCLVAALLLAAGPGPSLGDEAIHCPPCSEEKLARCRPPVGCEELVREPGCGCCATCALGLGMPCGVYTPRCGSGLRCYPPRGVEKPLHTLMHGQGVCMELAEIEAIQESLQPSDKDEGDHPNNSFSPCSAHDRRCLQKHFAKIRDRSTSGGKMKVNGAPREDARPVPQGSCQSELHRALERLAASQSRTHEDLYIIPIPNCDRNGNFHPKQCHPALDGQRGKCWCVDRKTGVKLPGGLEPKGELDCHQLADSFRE
# UniProt Q9NVM9, whole entry, looked up: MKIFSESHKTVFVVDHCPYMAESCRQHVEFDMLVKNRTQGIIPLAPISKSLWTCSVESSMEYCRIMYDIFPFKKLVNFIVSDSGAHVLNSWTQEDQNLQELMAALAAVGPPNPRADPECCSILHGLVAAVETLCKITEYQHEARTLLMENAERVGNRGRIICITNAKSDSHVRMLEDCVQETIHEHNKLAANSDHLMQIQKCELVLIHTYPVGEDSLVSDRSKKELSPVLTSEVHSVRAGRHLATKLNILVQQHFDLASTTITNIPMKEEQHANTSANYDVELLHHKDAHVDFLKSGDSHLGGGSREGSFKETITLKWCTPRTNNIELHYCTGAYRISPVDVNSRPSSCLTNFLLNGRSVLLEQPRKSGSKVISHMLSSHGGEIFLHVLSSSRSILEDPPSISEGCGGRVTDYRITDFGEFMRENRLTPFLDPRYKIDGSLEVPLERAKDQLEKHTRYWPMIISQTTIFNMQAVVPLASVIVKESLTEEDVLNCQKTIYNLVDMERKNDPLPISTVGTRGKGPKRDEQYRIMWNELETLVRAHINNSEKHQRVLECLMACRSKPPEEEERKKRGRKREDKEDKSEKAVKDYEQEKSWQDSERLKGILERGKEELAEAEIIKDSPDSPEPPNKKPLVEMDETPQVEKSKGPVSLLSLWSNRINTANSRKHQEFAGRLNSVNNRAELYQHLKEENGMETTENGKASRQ
# The list shows a part of the results.
# Experiments:
# Assay in all cases: log2 fold change, soluble protein after heating vs DMSO (PISA); higher = thermal stabilisation; K562 lysate, 10 uM; active = over 0.2 and 3.5 SD of the protein, either way, in both replicates (recomputed)
# ibrutinib = compound: C=CC(=O)N1CCC[C@@H](n2nc(-c3ccc(Oc4ccccc4)cc3)c3c(N)ncnc32)C1 [ibrutinib]
# Procedure, shortened: (§1)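 Following dounce homogenisation of K562 pellets in PBS pH 7.4 with 1 mM MgCl2, crude extract at 1 mg/mL protein was incubated for 30 min with 10 μM compound. Aliquots were then heated for 3 min over 48°C-58°C and pooled, NP-40 was added to 0.5% at 4°C, and soluble protein was recovered as the supernatant at 21,000xg for 90 min. Channel-sum-equalised TMTpro 16plex LC-MS/MS quantified this protein. Each value, from duplicates, is a log-two fold change in thermal stability relative to solvent controls.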
# [1] = compound: CC(=O)c1cnc2ccc(-c3cc(Cl)c(O)c(Cl)c3)nc2c1N[C@H]1CC[C@H](CN(C)C)CC1
# Procedure, shortened: as §1
# ralimetinib = compound: CC(C)(C)Cn1c(N)nc2ccc(-c3[nH]c(C(C)(C)C)nc3-c3ccc(F)cc3)nc21 [ralimetinib]
# Procedure, shortened: as §1
# [2] = compound: CC(C)(O)CC(=O)NCCn1ccc2ncnc(Nc3ccc(Oc4cccc(C(F)(F)F)c4)c(Cl)c3)c21
# Procedure, shortened: as §1
# [3] = compound: CC(C)C1=C2N=C(C=C(N2N=C1)NCC3=CC=CC=C3)NCCCCCCN
# Procedure, shortened: as §1
# [4] = compound: CC1=C(C(CC(=O)N1)C2=CC=C(C=C2)C(F)(F)F)C(=O)NC3=C(C=C4C(=C3)C=NN4)F
# Procedure, shortened: as §1
# [5] = compound: CC1=C(C2=C(C=C1)C(=O)C3=CC=CC=C3N2CCCN)C
# Procedure, shortened: as §1
# [6] = compound: CC1=C(C=C(C=C1)NC(=O)C2=CC(=CC=C2)C(C)(C)C#N)NC3=CC4=C(C=C3)N=CN(C4=O)C
# Procedure, shortened: as §1
# [7] = compound: CC1=C(C=C(C=C1)NC(=O)C2=CC(=CC=C2)N(C)C)NC(=O)C3=CC=C(C=C3)O
# Procedure, shortened: as §1
# [8] = compound: CC1=CC=C(C=C1)SC2=C3C=C(SC3=CN=C2)C(=O)N
# Procedure, shortened: as §1
# vemurafenib = compound: CCCS(=O)(=O)Nc1ccc(F)c(C(=O)c2c[nH]c3ncc(-c4ccc(Cl)cc4)cc23)c1F [vemurafenib]
# Procedure, shortened: as §1
# [9] = compound: CCCS(=O)(=O)Nc1ccc(F)c(C(=O)c2c[nH]c3ncc(Cl)cc23)c1F
# Procedure, shortened: as §1
# barasertib = compound: CCN(CCCOc1ccc2c(Nc3cc(CC(=O)Nc4cccc(F)c4)[nH]n3)ncnc2c1)CCOP(=O)(O)O [barasertib]
# Procedure, shortened: as §1
# [10] = compound: CC[C@@H]1C(=O)N(C)c2cnc(Nc3ccc(C(=O)NC4CCN(C)CC4)cc3OC)nc2N1C1CCCC1
# Procedure, shortened: as §1
# volasertib = compound: CC[C@@H]1C(=O)N(C)c2cnc(Nc3ccc(C(=O)N[C@H]4CC[C@H](N5CCN(CC6CC6)CC5)CC4)cc3OC)nc2N1C(C)C [volasertib]
# Procedure, shortened: as §1
# [11] = compound: CCn1c(C(=O)N(C2CC2)C2CC2)cc2c3c(ncn3C)c(Nc3cc(C)n(C)n3)nc21
# Procedure, shortened: as §1
# [12] = compound: CCn1cc(-c2ccnc3[nH]c(-c4cccc(CN(C)C)c4)cc23)c(-c2ccc(NC(=O)N(C)C)cc2)n1
# Procedure, shortened: as §1
# [13] = compound: CN1CCC(CNc2ccc3ncc(-c4cccc(OC(F)(F)F)c4)n3n2)CC1
# Procedure, shortened: as §1
# saracatinib = compound: CN1CCN(CCOc2cc(OC3CCOCC3)c3c(Nc4c(Cl)ccc5c4OCO5)ncnc3c2)CC1 [saracatinib]
# Procedure, shortened: as §1
# sotrastaurin = compound: CN1CCN(c2nc(C3=C(c4c[nH]c5ccccc45)C(=O)NC3=O)c3ccccc3n2)CC1 [sotrastaurin]
# Procedure, shortened: as §1
Target,log2 fold change (ibrutinib),log2 fold change [1],log2 fold change (ralimetinib),log2 fold change [2],log2 fold change [3],log2 fold change [4],log2 fold change [5],log2 fold change [6],log2 fold change [7],log2 fold change [8],log2 fold change (vemurafenib),log2 fold change [9],log2 fold change (barasertib),log2 fold change [10],log2 fold change (volasertib),log2 fold change [11],log2 fold change [12],log2 fold change [13],log2 fold change (saracatinib),log2 fold change (sotrastaurin)
IARS2 (UniProt Q9NSE4),inactive: -0.006,inactive: -0.008,inactive: -0.005,inactive: 0.007,inactive: -0.025,inactive: -0.031,inactive: 0.016,inactive: 0.005,inactive: 0.013,inactive: -0.031,inactive: -0.007,inactive: -0.005,inactive: 0.037,inactive: -0.003,active: 0.312,inactive: -0.013,inactive: 0.198,inactive: -0.032,inactive: -0.002,inactive: 0.003
IMMT (UniProt Q16891),inactive: -0.015,inactive: 0.006,inactive: -0.018,inactive: -0.045,inactive: -0.017,inactive: -0.007,inactive: 0.038,inactive: 0.003,inactive: 0.011,inactive: 0.031,inactive: -0.016,inactive: -0.006,inactive: 0.004,inactive: -0.046,inactive: 0.015,inactive: 0.015,inactive: -0.005,active: -0.212,inactive: 0.01,inactive: -0.012
INTS10 (UniProt Q9NVR2),inactive: 0.079,inactive: 0.021,inactive: 0.01,inactive: -0.02,inactive: -0.023,inactive: 0.036,inactive: 0,inactive: 0.002,inactive: -0.014,inactive: 0.036,inactive: -0.008,inactive: -0.183,inactive: 0.061,inactive: -0.129,inactive: -0.088,inactive: -0.021,inactive: 0.14,inactive: -0.054,inactive: 0.052,inactive: 0.023
ICE2 (UniProt Q659A1),inactive: 0.024,inactive: 0.067,inactive: 0.022,inactive: -0.06,inactive: -0.084,inactive: 0.002,inactive: -0.085,inactive: -0.023,inactive: -0.042,inactive: -0.115,inactive: -0.036,inactive: -0.083,inactive: 0.047,inactive: 0.062,inactive: 0.104,inactive: -0.035,inactive: -0.002,inactive: -0.017,inactive: 0.003,inactive: 0.005
INO80C isoform 4 (UniProt Q6PI98),inactive: 0.1,inactive: -0.228,inactive: 0.065,inactive: -0.099,–,inactive: 0.005,inactive: 0.011,–,inactive: -0.188,inactive: 0.163,–,inactive: 0.03,inactive: 0.012,–,inactive: 0.063,inactive: -0.088,–,–,inactive: 0.127,–
ICA1 (UniProt Q05084),inactive: -0.029,inactive: -0.037,inactive: -0.004,inactive: -0.024,inactive: 0.052,inactive: -0.016,inactive: 0,inactive: 0.008,inactive: -0.004,inactive: -0.02,inactive: 0.065,inactive: 0.008,inactive: 0.061,inactive: -0.001,inactive: -0.017,inactive: -0.031,inactive: 0.022,inactive: -0.052,inactive: 0.01,inactive: -0.019
IGHG3 (UniProt P01860),inactive: -0.442,inactive: -0.072,inactive: -0.102,inactive: 0.487,–,inactive: 1.78,–,–,inactive: 0.092,inactive: 0.089,–,inactive: -0.282,inactive: -0.29,–,inactive: 0.006,inactive: 0.137,inactive: 0.2,inactive: -0.176,–,–
IMPAD1 (UniProt Q9NX62),inactive: 0.023,inactive: -0.025,inactive: 0.024,inactive: -0.01,inactive: 0.012,inactive: -0.021,inactive: -0.018,inactive: 0.017,inactive: 0.018,inactive: 0.008,inactive: 0.01,inactive: -0.019,inactive: 0.027,inactive: 0.098,inactive: 0.025,inactive: 0,inactive: 0.022,inactive: 0.007,inactive: 0.013,inactive: 0.004
HSPBAP1 (UniProt Q96EW2),inactive: -0.008,inactive: 0.039,inactive: -0.056,inactive: -0.095,inactive: 0.038,inactive: -0.214,inactive: -0.324,inactive: 0.002,inactive: 0.084,inactive: 0.084,–,inactive: 0.04,inactive: 0.012,inactive: 0.155,inactive: 0.044,inactive: -0.058,inactive: -0.293,inactive: -0.038,inactive: -0.054,inactive: 0.027
HUS1 (UniProt O60921),inactive: -0.067,inactive: 0.011,inactive: 0.081,inactive: -0.125,inactive: -0.035,inactive: 0,inactive: -0.014,inactive: 0.001,inactive: -0.008,inactive: 0.026,inactive: -0.016,inactive: 0.006,inactive: -0.012,inactive: -0.056,inactive: -0.011,inactive: -0.014,inactive: -0.002,inactive: 0.065,inactive: 0.033,inactive: 0.009
IFRD2 isoform 2 (UniProt Q12894),inactive: -0.055,inactive: 0.031,inactive: 0.003,inactive: -0.033,inactive: -0.061,–,inactive: -0.061,inactive: 0.007,inactive: -0.081,inactive: 0.061,inactive: 0.027,inactive: -0.069,inactive: -0.17,inactive: 0.042,inactive: -0.011,inactive: 0.004,inactive: -0.179,inactive: 0.062,inactive: -0.062,inactive: -0.02
IFT20 isoform 2 (UniProt Q8IY31),inactive: -0.033,inactive: -0.055,inactive: -0.001,inactive: -0.183,inactive: 0.015,inactive: -0.115,inactive: -0.08,inactive: 0.089,inactive: 0.052,inactive: -0.032,inactive: -0.012,inactive: 0.03,inactive: -0.189,inactive: 0.01,inactive: 0.001,inactive: 0.037,inactive: 0.274,inactive: 0.132,inactive: 0.058,inactive: -0.081
IGFBP4 (UniProt P22692),inactive: 0.035,inactive: 0.169,inactive: 0.012,inactive: -0.087,inactive: -0.029,inactive: -0.021,inactive: 0.236,inactive: 0.123,inactive: 0.037,inactive: -0.139,–,inactive: -0.171,inactive: -0.281,–,inactive: -0.002,inactive: 0.04,inactive: -0.063,inactive: 0.009,inactive: 0.016,inactive: -0.028
IL18R1 (UniProt Q13478),inactive: -0.177,inactive: 0.117,inactive: -0.261,inactive: -0.463,inactive: 0.053,inactive: -0.066,inactive: -0.031,inactive: 0.061,inactive: 0.15,inactive: 0.097,inactive: 0.074,inactive: -0.026,inactive: 0.061,inactive: 0.087,inactive: 0.044,inactive: -0.184,inactive: -0.284,inactive: 0.085,inactive: 0.023,inactive: -0.064
INPP4A (UniProt Q96PE3),inactive: -0.166,inactive: 0.001,inactive: 0.061,inactive: -0.013,inactive: -0.034,inactive: 0.02,inactive: -0.086,inactive: 0.022,inactive: -0.053,inactive: -0.025,inactive: -0.03,inactive: 0.011,active: 0.382,inactive: -0.017,inactive: -0.034,inactive: 0.031,inactive: 0.021,inactive: 0.015,inactive: -0.025,inactive: -0.008
IL27RA (UniProt Q6UWB1),inactive: -0.031,inactive: -0.051,inactive: -0.002,inactive: -0.184,inactive: 0.153,inactive: -0.006,inactive: 0.08,inactive: 0.02,inactive: -0.131,inactive: 0.054,–,inactive: -0.045,inactive: -0.068,inactive: -0.103,inactive: -0.116,inactive: 0.081,inactive: -0.033,inactive: 0.011,inactive: -0.05,inactive: 0.037
INTS13 (UniProt Q9NVM9),inactive: 0.01,inactive: -0.007,inactive: 0.034,inactive: -0.008,inactive: -0.01,inactive: -0.018,inactive: 0.006,inactive: -0.011,inactive: 0.028,inactive: 0.018,inactive: -0.029,inactive: 0.026,inactive: 0.014,inactive: 0.004,inactive: -0.045,inactive: 0.005,inactive: -0.018,inactive: -0.024,inactive: 0.026,inactive: 0.006

# Two successive entries already listed:
Target,log2 fold change (ibrutinib),log2 fold change [1],log2 fold change (ralimetinib),log2 fold change [2],log2 fold change [3],log2 fold change [4],log2 fold change [5],log2 fold change [6],log2 fold change [7],log2 fold change [8],log2 fold change (vemurafenib),log2 fold change [9],log2 fold change (barasertib),log2 fold change [10],log2 fold change (volasertib),log2 fold change [11],log2 fold change [12],log2 fold change [13],log2 fold change (saracatinib),log2 fold change (sotrastaurin)
ICE2 (UniProt Q659A1),inactive: 0.024,inactive: 0.067,inactive: 0.022,inactive: -0.06,inactive: -0.084,inactive: 0.002,inactive: -0.085,inactive: -0.023,inactive: -0.042,inactive: -0.115,inactive: -0.036,inactive: -0.083,inactive: 0.047,inactive: 0.062,inactive: 0.104,inactive: -0.035,inactive: -0.002,inactive: -0.017,inactive: 0.003,inactive: 0.005
INO80C isoform 4 (UniProt Q6PI98),inactive: 0.1,inactive: -0.228,inactive: 0.065,inactive: -0.099,–,inactive: 0.005,inactive: 0.011,–,inactive: -0.188,inactive: 0.163,–,inactive: 0.03,inactive: 0.012,–,inactive: 0.063,inactive: -0.088,–,–,inactive: 0.127,–
